Source: PubChem BioAssay AID1259405 (NCATS, 2018)
Purpose: 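Knock-downs that lift recombinant protein yield in hamster ovary cells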 (primary screen). System: Chinese hamster CHO-K1 ovary cells with stable secreted eGFP expression. Knock-down reagent: single siRNA against mouse genes, 0.8 pmol siRNA per well (2 µl of 400 nM stock). Duration: 3 days. Measurement: 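Per-well intracellular GFP measured by laser scanning cytometry, plus viability from ATP luminescence, each relative to plate median of non-targeting control wells, in %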. Direction: GFP, % of control: higher = more GFP per well, higher productivity; viability (ATP), % of control: higher = more viable cells (more ATP). Call rule: 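a knock-down is called active if GFP reaches 120% or more of non-targeting control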.
Here is one part, drawn at random, of about 50,000 deposited reagents. Of all reagents, about 4,000 (8%) were called active. 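Mouse siRNA library applied to hamster cells; one well for each siRNA.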 The numbers tell different reagents against one gene apart.

What is on record for Ufl1 #1?
GFP, % of control: 65.3; viability (ATP), % of control: 86.4; activity call: inactive

With Ufl1 #2, what does the deposit list?
GFP, % of control: 4.95; viability (ATP), % of control: 4.96; activity call: inactive

What is on record for Ufl1 #3?
GFP, % of control: 45.2; viability (ATP), % of control: 57.8; activity call: inactive

For Hax1 #1, what does the deposit list?
GFP, % of control: 59.5; viability (ATP), % of control: 64.5; activity call: inactive

Which result is listed for Hax1 #2?
GFP, % of control: 138; viability (ATP), % of control: 126; activity call: active

How did the screen score Hax1 #3?
GFP, % of control: 72.7; viability (ATP), % of control: 71.8; activity call: inactive

For Atp6ap1 #1, what was measured?
GFP, % of control: 28.4; viability (ATP), % of control: 44.3; activity call: inactive

For Atp6ap1 #2, what does the deposit list?
GFP, % of control: 85.5; viability (ATP), % of control: 129; activity call: inactive

With Atp6ap1 #3, what was measured?
GFP, % of control: 114; viability (ATP), % of control: 129; activity call: inactive

What did the screen give for Or9s14 #1?
GFP, % of control: 79.1; viability (ATP), % of control: 66.9; activity call: inactive

What is on record for Or9s14 #2?
GFP, % of control: 83.2; viability (ATP), % of control: 74; activity call: inactive

With Or9s14 #3, what does the deposit list?
GFP, % of control: 88.8; viability (ATP), % of control: 91.4; activity call: inactive

With Plxnd1, how do the results read?
GFP, % of control: 62.7; viability (ATP), % of control: 73.1; activity call: inactive

Part of the list above, reduced to “viability (ATP), % of control”:
Or9s14 #1 = 66.9
Or9s14 #2 = 74
Or9s14 #3 = 91.4
Plxnd1 = 73.1

More reagents follow:
What is on record for Xiap #1?
GFP, % of control: 86.4; viability (ATP), % of control: 94.6; activity call: inactive

For Xiap #2, what was measured?
GFP, % of control: 98.2; viability (ATP), % of control: 89.5; activity call: inactive

Which result is listed for Xiap #3?
GFP, % of control: 124; viability (ATP), % of control: 74.8; activity call: active

What did the screen give for Kcnc1 #1?
GFP, % of control: 65.6; viability (ATP), % of control: 44.4; activity call: inactive

For Kcnc1 #2, what does the deposit list?
GFP, % of control: 116; viability (ATP), % of control: 95.4; activity call: inactive

With Kcnc1 #3, how do the results read?
GFP, % of control: 93.3; viability (ATP), % of control: 65.6; activity call: inactive

With Manea #1, what does the deposit list?
GFP, % of control: 87.9; viability (ATP), % of control: 72.5; activity call: inactive

What did the screen give for Manea #2?
GFP, % of control: 91.2; viability (ATP), % of control: 63; activity call: inactive

For Manea #3, how do the results read?
GFP, % of control: 58.6; viability (ATP), % of control: 59.9; activity call: inactive

How did the screen score Ugt2a1 #1?
GFP, % of control: 126; viability (ATP), % of control: 98.6; activity call: active

For Ugt2a1 #2, what was measured?
GFP, % of control: 76.2; viability (ATP), % of control: 135; activity call: inactive

What is on record for Ugt2a1 #3?
GFP, % of control: 95.3; viability (ATP), % of control: 95.6; activity call: inactive

For Galk1, what does the deposit list?
GFP, % of control: 76.8; viability (ATP), % of control: 54.4; activity call: inactive

What did the screen give for Saa4 #1?
GFP, % of control: 49.7; viability (ATP), % of control: 38.8; activity call: inactive

For Saa4 #2, what does the deposit list?
GFP, % of control: 110; viability (ATP), % of control: 88.4; activity call: inactive

With Saa4 #3, how do the results read?
GFP, % of control: 77.2; viability (ATP), % of control: 48; activity call: inactive

What did the screen give for Cdhr3 #1?
GFP, % of control: 62.4; viability (ATP), % of control: 48.7; activity call: inactive

Which result is listed for Cdhr3 #2?
GFP, % of control: 19.4; viability (ATP), % of control: 46.8; activity call: inactive

With Cdhr3 #3, how do the results read?
GFP, % of control: 48; viability (ATP), % of control: 56.8; activity call: inactive

With Slc35f3 #1, what was measured?
GFP, % of control: 77; viability (ATP), % of control: 63.3; activity call: inactive

What did the screen give for Slc35f3 #2?
GFP, % of control: 97.9; viability (ATP), % of control: 82.2; activity call: inactive

For Slc35f3 #3, how do the results read?
GFP, % of control: 88.6; viability (ATP), % of control: 68; activity call: inactive

Which result is listed for Dnaaf2 #1?
GFP, % of control: 74.6; viability (ATP), % of control: 82.7; activity call: inactive

With Dnaaf2 #2, how do the results read?
GFP, % of control: 82; viability (ATP), % of control: 95.3; activity call: inactive

What is on record for Dnaaf2 #3?
GFP, % of control: 57.8; viability (ATP), % of control: 49.9; activity call: inactive

With Hoxd12 #1, what does the deposit list?
GFP, % of control: 84; viability (ATP), % of control: 101; activity call: inactive

For Hoxd12 #2, how do the results read?
GFP, % of control: 45.7; viability (ATP), % of control: 80.6; activity call: inactive

For Hoxd12 #3, what does the deposit list?
GFP, % of control: 90.2; viability (ATP), % of control: 57.4; activity call: inactive
